Assay results published in patent US20070081951A1, “Prevention of dental plaque and dental calculus in animals” (priority 2005, published 2007).

Key:
Type in all cases: cell-based
Settings in all cases: 20 ul specimen on TSA agar lawn, 37° C., 5% CO2, read at 24 and 48 h; CPC 0.05%, CHX 0.1%, acids 1% (wt. %)
[1] = tested on: Streptococcus mutans (TH16); assay: Zones of inhibition of growth on TSA agar plates, Streptococcus mutans (TH16)
Description: (§1) This study was conducted to determine whether anti-calculus agents inhibit the antimicrobial activity of cetyl pyridium chloride […] and chlorhexidine (CHX).
(§2) Experimental Design: TSA agar plates were individually swabbed with fresh 24 h broth cultures of Streptococcus mutans (TH16), Streptococcus parasanguis (FW213) and Actinomyces viscosus (AV) to provide a confluent lawn of bacterial growth. Five minutes after swabbing the plates (to allow the inoculum to absorb into the agar), 20 ul of each test specimen (see below) was placed onto designated places on the plates and allowed to absorb into the agar. The plates were incubated agar-side up at 37° C. in 5% CO2 for 48 h. Plates were examined at 24 and 48 h for zones of inhibition of growth for each bacterial species. The diameter of each zone was measured in mm. The zones of inhibition of each mixture (anti-calculus and antimicrobial agents) were compared to the zones of each agent separately. If the zones of the mixtures were the same size (or larger) than the inhibition zones from the antimicrobial agent alone then there was no inhibition of antimicrobial activity by the anti-calculus agent.
(§3) Test Specimens: There were 12 different samples/test specimens used in this experiment. […]

[2] = tested on: Streptococcus parasanguis (FW213); assay: Zones of inhibition of growth on TSA agar plates, Streptococcus parasanguis (FW213)
Description: as §1, §2, §3

[3] = tested on: Actinomyces viscosus (AV); assay: Zones of inhibition of growth on TSA agar plates, Actinomyces viscosus (AV)
Description: as §1, §2, §3

Compound: CCCCCCCCCCCCCCCC[n+]1ccccc1 [CPC alone, cetyl pyridinium chloride]
- Zones of Inhibition of Growth, TH16 [1]: 7 mm
- Zones of Inhibition of Growth, FW213 [2]: 9 mm
- Zones of Inhibition of Growth, AV [3]: 14 mm
